# Laboratory results from the supplement of paper PMC12819154, “High-throughput peptide-centric local stability assay extends protein–ligand identification to membrane proteins, tissues and bacteria” (Nature Structural & Molecular Biology, 2025).
# Amino acid sequences for entries named in this document (tags omitted). A change or cut given only in a name is not applied to a line headed by its entry.
# UniProt O43760: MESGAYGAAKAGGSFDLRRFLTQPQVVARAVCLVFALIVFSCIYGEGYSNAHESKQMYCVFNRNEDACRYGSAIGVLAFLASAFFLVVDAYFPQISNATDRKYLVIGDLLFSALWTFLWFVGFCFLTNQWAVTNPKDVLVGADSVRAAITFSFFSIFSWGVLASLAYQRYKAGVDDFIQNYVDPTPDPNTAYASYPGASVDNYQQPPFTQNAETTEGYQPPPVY
# UniProt O60256: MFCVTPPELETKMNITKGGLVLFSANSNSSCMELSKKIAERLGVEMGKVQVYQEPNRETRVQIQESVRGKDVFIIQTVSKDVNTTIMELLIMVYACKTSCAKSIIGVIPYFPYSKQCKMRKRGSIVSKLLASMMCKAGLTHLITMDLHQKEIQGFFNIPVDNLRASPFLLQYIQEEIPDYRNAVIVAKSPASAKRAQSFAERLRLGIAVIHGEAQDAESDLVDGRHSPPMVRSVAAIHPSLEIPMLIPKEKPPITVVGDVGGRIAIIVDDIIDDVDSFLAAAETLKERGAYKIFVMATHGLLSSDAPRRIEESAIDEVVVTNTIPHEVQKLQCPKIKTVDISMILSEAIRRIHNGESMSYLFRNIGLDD
# UniProt O43583: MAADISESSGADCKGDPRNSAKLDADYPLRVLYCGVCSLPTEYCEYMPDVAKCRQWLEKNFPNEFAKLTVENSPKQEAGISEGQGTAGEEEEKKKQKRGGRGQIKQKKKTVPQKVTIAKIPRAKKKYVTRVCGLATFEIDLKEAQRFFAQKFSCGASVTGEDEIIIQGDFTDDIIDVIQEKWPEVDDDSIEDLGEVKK
# UniProt O15488: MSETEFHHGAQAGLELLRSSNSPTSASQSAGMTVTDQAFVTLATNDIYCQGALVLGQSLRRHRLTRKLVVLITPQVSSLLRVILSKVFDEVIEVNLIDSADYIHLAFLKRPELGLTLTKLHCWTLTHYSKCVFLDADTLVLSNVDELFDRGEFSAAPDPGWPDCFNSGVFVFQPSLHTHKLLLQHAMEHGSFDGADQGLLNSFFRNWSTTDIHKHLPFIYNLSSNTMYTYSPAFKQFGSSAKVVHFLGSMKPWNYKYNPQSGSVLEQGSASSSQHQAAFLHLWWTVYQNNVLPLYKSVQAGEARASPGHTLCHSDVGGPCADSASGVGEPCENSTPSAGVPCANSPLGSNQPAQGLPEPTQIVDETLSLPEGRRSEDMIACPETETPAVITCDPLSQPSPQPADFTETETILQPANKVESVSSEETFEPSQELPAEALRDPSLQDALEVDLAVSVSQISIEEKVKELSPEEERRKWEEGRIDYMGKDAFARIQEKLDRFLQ
# UniProt O60658: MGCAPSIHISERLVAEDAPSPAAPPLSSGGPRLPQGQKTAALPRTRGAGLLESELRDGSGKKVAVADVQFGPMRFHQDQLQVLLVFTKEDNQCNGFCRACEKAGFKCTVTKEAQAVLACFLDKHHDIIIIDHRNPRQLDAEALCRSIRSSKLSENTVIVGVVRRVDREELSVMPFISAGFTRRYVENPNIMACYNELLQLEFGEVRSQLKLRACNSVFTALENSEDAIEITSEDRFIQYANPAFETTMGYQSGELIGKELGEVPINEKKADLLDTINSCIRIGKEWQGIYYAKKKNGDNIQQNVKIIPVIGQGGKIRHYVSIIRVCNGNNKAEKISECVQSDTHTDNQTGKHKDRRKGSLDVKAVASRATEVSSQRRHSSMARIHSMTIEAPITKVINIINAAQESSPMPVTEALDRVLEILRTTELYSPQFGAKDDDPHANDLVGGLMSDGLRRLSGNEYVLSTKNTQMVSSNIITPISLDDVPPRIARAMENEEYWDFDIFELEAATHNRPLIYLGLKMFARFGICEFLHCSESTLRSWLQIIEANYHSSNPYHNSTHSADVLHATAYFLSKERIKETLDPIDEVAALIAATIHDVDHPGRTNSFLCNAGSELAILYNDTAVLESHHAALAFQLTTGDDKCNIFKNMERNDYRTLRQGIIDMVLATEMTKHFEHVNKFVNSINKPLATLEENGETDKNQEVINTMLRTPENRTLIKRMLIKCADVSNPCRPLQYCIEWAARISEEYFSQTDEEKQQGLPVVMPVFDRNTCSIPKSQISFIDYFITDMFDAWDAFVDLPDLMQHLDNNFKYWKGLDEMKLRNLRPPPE
# UniProt O60566, whole entry: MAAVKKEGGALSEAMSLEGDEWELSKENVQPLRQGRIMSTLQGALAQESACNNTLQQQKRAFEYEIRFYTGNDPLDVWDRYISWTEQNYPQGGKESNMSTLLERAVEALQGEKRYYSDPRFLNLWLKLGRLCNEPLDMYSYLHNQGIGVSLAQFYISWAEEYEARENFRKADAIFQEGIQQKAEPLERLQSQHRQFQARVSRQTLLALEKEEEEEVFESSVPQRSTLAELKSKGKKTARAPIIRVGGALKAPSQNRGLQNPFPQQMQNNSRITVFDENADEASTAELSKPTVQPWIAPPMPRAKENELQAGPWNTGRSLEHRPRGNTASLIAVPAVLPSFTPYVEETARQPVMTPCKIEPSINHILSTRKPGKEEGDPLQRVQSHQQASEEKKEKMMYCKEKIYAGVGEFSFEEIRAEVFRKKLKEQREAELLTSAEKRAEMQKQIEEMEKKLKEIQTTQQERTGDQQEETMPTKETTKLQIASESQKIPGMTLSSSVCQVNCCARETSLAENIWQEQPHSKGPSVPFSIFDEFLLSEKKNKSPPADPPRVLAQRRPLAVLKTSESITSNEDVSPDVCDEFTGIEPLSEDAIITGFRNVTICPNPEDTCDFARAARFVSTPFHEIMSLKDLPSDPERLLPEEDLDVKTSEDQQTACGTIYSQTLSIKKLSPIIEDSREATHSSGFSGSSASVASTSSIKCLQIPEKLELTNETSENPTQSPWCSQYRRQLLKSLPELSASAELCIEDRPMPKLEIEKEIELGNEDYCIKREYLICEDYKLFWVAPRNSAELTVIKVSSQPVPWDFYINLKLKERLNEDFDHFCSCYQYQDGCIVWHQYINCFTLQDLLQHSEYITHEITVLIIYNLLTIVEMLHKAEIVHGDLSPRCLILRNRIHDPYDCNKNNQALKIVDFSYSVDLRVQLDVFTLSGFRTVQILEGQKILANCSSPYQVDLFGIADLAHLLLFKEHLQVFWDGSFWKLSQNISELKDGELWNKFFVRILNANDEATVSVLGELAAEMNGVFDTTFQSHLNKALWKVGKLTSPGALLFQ
# UniProt O43665: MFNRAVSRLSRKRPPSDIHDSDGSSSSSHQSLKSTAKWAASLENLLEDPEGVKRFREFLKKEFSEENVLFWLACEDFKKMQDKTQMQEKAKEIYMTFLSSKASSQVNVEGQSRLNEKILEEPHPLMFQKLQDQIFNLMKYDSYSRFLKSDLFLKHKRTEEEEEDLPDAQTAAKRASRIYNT
# UniProt O43741: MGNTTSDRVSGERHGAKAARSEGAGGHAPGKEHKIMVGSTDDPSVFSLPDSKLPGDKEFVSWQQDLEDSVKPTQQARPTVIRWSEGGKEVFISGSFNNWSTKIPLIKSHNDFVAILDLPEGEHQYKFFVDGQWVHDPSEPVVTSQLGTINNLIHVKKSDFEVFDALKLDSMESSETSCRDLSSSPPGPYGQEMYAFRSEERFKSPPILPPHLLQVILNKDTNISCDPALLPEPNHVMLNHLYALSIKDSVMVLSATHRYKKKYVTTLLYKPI
# UniProt O75164: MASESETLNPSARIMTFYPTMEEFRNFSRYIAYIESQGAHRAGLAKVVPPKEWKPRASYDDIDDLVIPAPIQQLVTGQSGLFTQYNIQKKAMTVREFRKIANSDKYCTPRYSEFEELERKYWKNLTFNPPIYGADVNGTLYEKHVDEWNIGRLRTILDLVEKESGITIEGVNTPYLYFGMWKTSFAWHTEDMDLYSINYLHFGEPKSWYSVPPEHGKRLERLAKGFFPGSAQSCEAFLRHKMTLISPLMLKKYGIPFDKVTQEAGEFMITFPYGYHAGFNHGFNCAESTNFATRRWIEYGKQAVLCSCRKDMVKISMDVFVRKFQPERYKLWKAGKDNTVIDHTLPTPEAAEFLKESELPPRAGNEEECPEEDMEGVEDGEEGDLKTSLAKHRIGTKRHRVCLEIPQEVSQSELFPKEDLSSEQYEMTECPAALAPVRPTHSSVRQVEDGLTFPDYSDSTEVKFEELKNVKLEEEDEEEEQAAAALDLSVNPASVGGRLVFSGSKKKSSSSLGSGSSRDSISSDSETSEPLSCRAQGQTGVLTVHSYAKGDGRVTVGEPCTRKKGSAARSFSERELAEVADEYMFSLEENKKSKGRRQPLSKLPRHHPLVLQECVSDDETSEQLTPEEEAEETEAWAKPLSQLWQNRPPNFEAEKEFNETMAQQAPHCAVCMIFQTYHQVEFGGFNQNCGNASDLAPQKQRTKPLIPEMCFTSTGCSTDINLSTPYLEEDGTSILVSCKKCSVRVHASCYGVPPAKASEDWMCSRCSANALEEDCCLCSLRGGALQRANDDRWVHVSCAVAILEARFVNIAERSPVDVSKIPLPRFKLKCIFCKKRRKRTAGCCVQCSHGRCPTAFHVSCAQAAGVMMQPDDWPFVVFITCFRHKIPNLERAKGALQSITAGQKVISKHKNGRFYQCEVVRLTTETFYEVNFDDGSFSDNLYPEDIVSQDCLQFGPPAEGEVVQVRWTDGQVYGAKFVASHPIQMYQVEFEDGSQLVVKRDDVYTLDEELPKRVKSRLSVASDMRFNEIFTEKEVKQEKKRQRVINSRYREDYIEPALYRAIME
# UniProt O43395: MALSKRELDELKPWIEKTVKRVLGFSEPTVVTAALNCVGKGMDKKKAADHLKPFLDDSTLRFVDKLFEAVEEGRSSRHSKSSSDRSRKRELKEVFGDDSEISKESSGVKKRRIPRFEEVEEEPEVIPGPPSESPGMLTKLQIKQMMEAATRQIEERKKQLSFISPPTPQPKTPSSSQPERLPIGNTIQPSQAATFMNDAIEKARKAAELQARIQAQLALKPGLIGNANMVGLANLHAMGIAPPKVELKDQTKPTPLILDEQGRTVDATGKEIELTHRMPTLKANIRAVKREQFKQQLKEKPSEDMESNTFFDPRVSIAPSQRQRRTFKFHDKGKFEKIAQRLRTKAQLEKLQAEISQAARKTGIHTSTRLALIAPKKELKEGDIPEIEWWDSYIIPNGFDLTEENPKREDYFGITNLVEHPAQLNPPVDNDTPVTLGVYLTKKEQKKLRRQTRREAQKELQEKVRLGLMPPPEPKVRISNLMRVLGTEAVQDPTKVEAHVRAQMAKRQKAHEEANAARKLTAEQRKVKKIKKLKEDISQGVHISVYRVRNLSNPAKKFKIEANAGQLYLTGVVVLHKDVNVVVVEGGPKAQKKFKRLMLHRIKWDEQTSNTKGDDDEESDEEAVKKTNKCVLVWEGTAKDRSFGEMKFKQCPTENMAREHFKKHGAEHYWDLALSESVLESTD
# UniProt O43766: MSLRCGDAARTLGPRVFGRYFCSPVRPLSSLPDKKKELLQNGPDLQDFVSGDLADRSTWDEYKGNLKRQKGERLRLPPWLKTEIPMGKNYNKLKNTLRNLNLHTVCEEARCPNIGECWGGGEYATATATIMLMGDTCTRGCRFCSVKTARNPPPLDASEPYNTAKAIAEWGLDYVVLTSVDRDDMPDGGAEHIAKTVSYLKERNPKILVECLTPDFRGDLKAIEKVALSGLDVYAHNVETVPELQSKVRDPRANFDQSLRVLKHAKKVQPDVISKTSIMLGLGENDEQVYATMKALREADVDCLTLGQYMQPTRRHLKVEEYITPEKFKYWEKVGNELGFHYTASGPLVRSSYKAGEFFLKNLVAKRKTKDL
# UniProt O43502: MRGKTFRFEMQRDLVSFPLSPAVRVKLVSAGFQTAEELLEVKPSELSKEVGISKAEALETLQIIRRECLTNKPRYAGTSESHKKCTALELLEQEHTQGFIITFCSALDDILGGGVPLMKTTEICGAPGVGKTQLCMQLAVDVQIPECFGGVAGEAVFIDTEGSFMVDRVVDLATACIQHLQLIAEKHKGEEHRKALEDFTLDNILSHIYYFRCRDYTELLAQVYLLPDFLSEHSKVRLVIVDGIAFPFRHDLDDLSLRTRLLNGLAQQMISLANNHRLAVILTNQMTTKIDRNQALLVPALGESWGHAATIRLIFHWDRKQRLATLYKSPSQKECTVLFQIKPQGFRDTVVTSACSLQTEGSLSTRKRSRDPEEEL
# UniProt O60884: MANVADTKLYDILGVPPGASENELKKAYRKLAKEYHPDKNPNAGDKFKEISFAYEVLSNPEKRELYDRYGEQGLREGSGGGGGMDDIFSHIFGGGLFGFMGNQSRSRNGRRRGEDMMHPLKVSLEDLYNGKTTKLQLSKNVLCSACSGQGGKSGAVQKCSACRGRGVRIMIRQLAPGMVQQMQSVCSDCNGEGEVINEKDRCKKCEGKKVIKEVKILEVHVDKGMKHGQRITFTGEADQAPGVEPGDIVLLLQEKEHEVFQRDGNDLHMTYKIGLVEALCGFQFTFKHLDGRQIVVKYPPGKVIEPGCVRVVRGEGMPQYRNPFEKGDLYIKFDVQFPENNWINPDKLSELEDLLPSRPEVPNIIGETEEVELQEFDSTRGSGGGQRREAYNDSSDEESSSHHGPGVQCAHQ
# Some of the results follow. Most values lie at the level of the controls, where differences are scatter.
# Compound: CN[C@@H]1C[C@H]2O[C@@](C)([C@@H]1OC)n1c3ccccc3c3c4c(c5c6ccccc6n2c5c31)C(=O)NC4 [staurosporine]
# Experiment: log2 fold change of tryptic peptide abundance, ligand vs vehicle (limited proteolysis) (log2 ratio); higher = more trypsin-susceptible (destabilized)
# Details: ligand concentration: 20 uM; sample: K562 cleared lysate; digestion: 4 min, 22 C (HT-PELSA RT4min, Orbitrap Astral)
row,Target,log2 fold change
1,"DKC1 (peptide sequence: ALETLTGALFQRPPLIAAVKR, peptide start residue: 172) (UniProt O60832)",-0.176
2,"GTPBP6 (peptide sequence: FTVVLHIFR, peptide start residue: 201) (UniProt O43824)",0.467
3,"SYNGR2 (peptide sequence: MESGAYGAAK, peptide start residue: 1) (UniProt O43760)",-0.023
4,"PRPSAP2 (peptide sequence: SVAAIHPSLEIPMLIPK, peptide start residue: 233) (UniProt O60256)",-0.0436
5,"BNIP3L (peptide sequence: DHSSQSEEEVVEGEKEVEALKK, peptide start residue: 115) (UniProt O60238)",0.396
6,"UniProt O43913 (peptide sequence: NIEPHLKK, peptide start residue: 256)",0.438
7,"DENR (peptide sequence: VCGLATFEIDLKEAQR, peptide start residue: 131) (UniProt O43583)",-0.637
8,"GYG2 (peptide sequence: VVHFLGSMKPWNYK, peptide start residue: 243) (UniProt O15488)",0.755
9,"NME2P1 (peptide sequence: QHYIDLK, peptide start residue: 50) (UniProt O60361)",-0.144
10,"UniProt O75161 (peptide sequence: FSGGSLLTTGSSR, peptide start residue: 858)",-0.411
11,"PDE8A (peptide sequence: IIPVIGQGGK, peptide start residue: 306) (UniProt O60658)",-0.208
12,"UniProt O43847 (peptide sequence: LGADESEEEGR, peptide start residue: 81)",-0.131
13,"CPNE3 (peptide sequence: SYKNSGVISVK, peptide start residue: 260) (UniProt O75131)",1.13
14,"ARHGAP6 (peptide sequence: MTSLNLATIFGPNLLHK, peptide start residue: 549) (UniProt O43182)",-0.11
15,"CCDC22 (peptide sequence: DQLALPWVPPHLR, peptide start residue: 136) (UniProt O60826)",0.278
16,"BUB1B (peptide sequence: FLNLWLK, peptide start residue: 121) (UniProt O60566)",-0.303
17,"MED14 (peptide sequence: KLSDDPCPVESKK, peptide start residue: 615) (UniProt O60244)",0.612
18,"RGS10 (peptide sequence: KMQDKTQMQEK, peptide start residue: 79) (UniProt O43665)",0.494
19,"CTNND1 (peptide sequence: RTETTVKK, peptide start residue: 136) (UniProt O60716)",0.527

# Some of the entries above in a different format:
row | Target | log2 fold change
15 | CCDC22 (peptide sequence: DQLALPWVPPHLR, peptide start residue: 136) (UniProt O60826) | 0.278
16 | BUB1B (peptide sequence: FLNLWLK, peptide start residue: 121) (UniProt O60566) | -0.303

# Additional records follow.

row,Target,log2 fold change
1,"UniProt O43929 (peptide sequence: SNSLIHTECLSQVQR, peptide start residue: 8)",-0.102
2,"PSMD3 (peptide sequence: LQLDSPEDAEFIVAK, peptide start residue: 426) (UniProt O43242)",-0.374
3,"PRC1 (peptide sequence: FMEYVAEQWEMHR, peptide start residue: 428) (UniProt O43663)",0.361
4,"HTATSF1 (peptide sequence: GFEGSCSQKESEEGNPVR, peptide start residue: 475) (UniProt O43719)",-0.199
5,"PRKAB2 (peptide sequence: SEGAGGHAPGK, peptide start residue: 21) (UniProt O43741)",-0.509
6,"Jak2 (peptide sequence: NILLIREEDRK, peptide start residue: 678) (UniProt O60674)",-0.394
7,"UniProt O75164 (peptide sequence: FYQCEVVR, peptide start residue: 914)",0.347
8,"MITF (peptide sequence: YHIQQAQR, peptide start residue: 129) (UniProt O75030)",0.315
9,"POLR2D (peptide sequence: FEDEELQQILDDIQTK, peptide start residue: 122) (UniProt O15514)",-0.307
10,"NUDT21 (peptide sequence: SQTGWPRGVTQFGNK, peptide start residue: 9) (UniProt O43809)",0.0182
11,"PRPF3 (peptide sequence: IEANAGQLYLTGVVVLHK, peptide start residue: 560) (UniProt O43395)",-0.353
12,"LIAS (peptide sequence: KVQPDVISK, peptide start residue: 267) (UniProt O43766)",-0.352
13,"SRGAP2 (peptide sequence: MKEYLEGR, peptide start residue: 454) (UniProt O75044)",0.194
14,"TRIAP1 (peptide sequence: EKEIPIEGLEFMGHGK, peptide start residue: 54) (UniProt O43715)",-0.0869
15,"RAD51C (peptide sequence: AEALETLQIIRR, peptide start residue: 55) (UniProt O43502)",-0.17
16,"DNAJA2 (peptide sequence: VSLEDLYNGK, peptide start residue: 122) (UniProt O60884)",0.359
17,"MYO1B (peptide sequence: RLKEEAR, peptide start residue: 801) (UniProt O43795)",-0.0143
18,"CD3EAP (peptide sequence: SALAPNLLTSGKK, peptide start residue: 163) (UniProt O15446)",0.133
